In PMC11199634 one finds binding data, which are given here for four molecules.

No constants are given. Whether binding was seen depends on the method and setting. In cells and extracts the contact can be indirect. Binding calls can cover weak binding; strength is not graded here. For some of these results: Tags and fused reporters may be left off the sequences shown.

In experiment [1] the target is LgBiT-PP1α (human). Description: split reporter; lysate-based split-luciferase, kinetic traces at 20-s intervals, room temperature; competitor added after assembly.
Experiment [2] has as its target LgBiT-PP1α (human). Description: split reporter; lysate-based split-luciferase kinetic traces; purified competitor (5 µM NIPP1-(143–224), or 10 μM SDS22-WT or SDS22-E192A) added to the lysates; only the binder purified.
Experiment [3] deals with LgBiT-PP1α (human). Put plainly: split reporter; lysate-based split-luciferase, HEK293T lysates with LgBiT and SmBiT fusions mixed, room temperature, endpoint after 15 min; signals normalized for expression.

B1: SDS22-SmBiT (protein, UniProt Q15435 1-360)
chain: MAAERGAGQQQSQEMMEVDRRVESEESGDEEGKKHSSGIVADLSEQSLKDGEERGEEDPEEEHELPVDMETINLDRDAEDVDLNHYRIGKIEGFEVLKKVKTLCLRQNLIKCIENLEELQSLRELDLYDNQIKKIENLEALTELEILDISFNLLRNIEGVDKLTRLKKLFLVNNKISKIENLSNLHQLQMLELGSNRIRAIENIDTLTNLESLFLGKNKITKLQNLDALTNLTVLSMQSNRLTKIEGLQNLVNLRELYLSHNGIEVIEGLENNNKLTMLDIASNRIKKIENISHLTELQEFWMNDNLLESWSDLDELKGARSLETVYLERNPLQKDPQYRRKVMLALPSVRQIDATFVRF
Turning to B1, the binding result with LgBiT-PP1α (human) [1] is recorded as “binds”.

B2: SDS22 (tag-free, purified) (protein, UniProt Q15435 1-360)
chain: B1 chain
As for B2, the binding entry with LgBiT-PP1α (human) [2] was “binds”.

B3: RM-SmBiT (protein, UniProt Q69YH5 1-1023)
chain: MDANSKDKPPETKESAMNNAGNASFILGTGKIVTPQKHAELPPNPCTPDTFKSPLNFSTVTVEQLGITPESFVRNSAGKSSSYLKKCRRRSAVGARGSPETNHLIRFIARQQNIKNARKSPLAQDSPSQGSPALYRNVNTLRERISAFQSAFHSIKENEKMTGCLEFSEAGKESEMTDLTRKEGLSACQQSGFPAVLSSKRRRISYQRDSDENLTDAEGKVIGLQIFNIDTDRACAVETSVDLSEISSKLGSTQSGFLVEESLPLSELTETSNALKVADCVVGKGSSDAVSPDTFTAEVSSDAVPDVRSPATPACRRDLPTPKTFVLRSVLKKPSVKMCLESLQEHCNNLYDDDGTHPSLISNLPNCCKEKEAEDEENFEAPAFLNMRKRKRVTFGEDLSPEVFDESLPANTPLRKGGTPVCKKDFSGLSSLLLEQSPVPEPLPQPDFDDKGENLENIEPLQVSFAVLSSPNKSSISETLSGTDTFSSSNNHEKISSPKVGRITRTSNRRNQLVSVVEESVCNLLNTEVQPCKEKKINRRKSQETKCTKRALPKKSQVLKSCRKKKGKGKKSVQKSLYGERDIASKKPLLSPIPELPEVPEMTPSIPSIRRLGSGYFSSNGKLEEVKTPKNPVKRKDLLRHDPDLHMHQGYDKYDVSEFCSYIKSSSSLGNATSDEDPNTNIMNINENKNIPKAKNKSESENEPKAGTDSPVSCASVTEERVASDSPKPALTLQQGQEFSAGGQNAENLCQFFKISPDLNIKCERKDDFLGAAEGKLQCNRLMPNSQKDCHCLGDVLIENTKESKSQSEDLGRKPMESSSVVSCRDRKDRRRSMCYSDGRSLHLEKNGNHTPSSSVGSSVEISLENSELFKDLSDAIEQTFQRRNSETKVRRSTRLQKDLENEGLVWISLPLPSTSQKAKRRTICTFDSSGFESMSPIKETVSSRQKPQMAPPVSDPENSQGPAAGSSDEPGKRRKSFCISTLANTKATSQFKGYRRRSSLNGKGESSLTALERIEHNGERKQ
In the case of B3, the binding result in the experiment with LgBiT-PP1α (human) [1] is “binds”.

B4: I2-SmBiT (protein, UniProt P41236 1-205)
chain: MAASTASHRPIKGILKNKTSTTSSMVASAEQPRGNVDEELSKKSQKWDEMNILATYHPADKDYGLMKIDEPSTPYHSMMGDDEDACSDTEATEAMAPDILARKLAAAEGLEPKYRIQEQESSGEEDSDLSPEEREKKRQFEMKRKLHYNEGLNIKLARQLISKDLHDDDEDEEMLETADGESMNTEESNQGSTPSDQQQNKLRSS
As for B4, the binding entry with LgBiT-PP1α (human) [3] is given as “binds”.
